PubChem BioAssay AID1224830, NIAID, 2016
The deposit covers about 18,000 reagents; below is an unselected part. In the full data, about 2,900 (16%) got an active call. 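Calls are made per well; low scores hint the gene aids the LPS response, high scores that it dampens it.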 Repeated entries: four replicate wells of each siRNA pool.

Test: 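Host factors that control LPS-induced TNF expression in human macrophages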 (primary screen)
Cells: human THP-1 monocytic leukaemia cells, TNF dual-luciferase reporter clone, PMA-differentiated to macrophage-like cells
Reagents: siRNA pool against human genes, 50 nM
Time to read-out: LPS for 4 h, given about 3 days after siRNA transfection
Treatment: bacterial LPS (TLR4 ligand), 10 ng/ml
Measured: 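Ratio of firefly to renilla light, scaled to the plate median and expressed as a robust z-score per replicate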
Scale: TNF reporter robust z-score: higher = stronger TNF reporter response to LPS
Active means: 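a well is active when its z-score exceeds 2.8 or falls below -1.5; control wells carry no call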

| gene | TNF reporter robust z-score | Outcome |
| --- | --- | --- |
| PTOV1 | -1.47 | inactive |
| PTOV1 | -0.86 | inactive |
| PTOV1 | -0.96 | inactive |
| PTOV1 | -0.81 | inactive |
| U2SURP | -1.25 | inactive |
| U2SURP | -0.44 | inactive |
| U2SURP | -0.64 | inactive |
| U2SURP | -0.57 | inactive |
| ORMDL2 | 1.54 | inactive |
| ORMDL2 | 0.54 | inactive |
| ORMDL2 | 2 | inactive |
| ORMDL2 | 2.14 | inactive |
| C4A | -0.91 | inactive |
| C4A | -0.73 | inactive |
| C4A | -1.53 | active |
| C4A | -0.65 | inactive |
| TNKS2 | 1.43 | inactive |
| TNKS2 | 0.73 | inactive |
| TNKS2 | 0.88 | inactive |
| TNKS2 | 0.41 | inactive |
| BCKDHB | 3.12 | active |
| BCKDHB | -0.15 | inactive |
| BCKDHB | -0.95 | inactive |
| BCKDHB | 0.35 | inactive |
| BATF3 | -0.65 | inactive |
| BATF3 | -0.48 | inactive |
| BATF3 | 0 | inactive |
| BATF3 | -0.79 | inactive |
| ZC3HC1 | -0.45 | inactive |
| ZC3HC1 | 1.24 | inactive |
| ZC3HC1 | -0.3 | inactive |
| ZC3HC1 | -0.09 | inactive |
| GPSM3 | 0.17 | inactive |
| GPSM3 | -0.96 | inactive |
| GPSM3 | -0.17 | inactive |
| GPSM3 | 0.1 | inactive |
| CYB5R2 | 0.52 | inactive |
| CYB5R2 | 0.88 | inactive |
| CYB5R2 | 0.53 | inactive |
| CYB5R2 | 1.06 | inactive |
| CWC25 | 0.53 | inactive |
| CWC25 | 0.13 | inactive |
| CWC25 | 0.18 | inactive |
| CWC25 | 0.61 | inactive |
| B4GALNT1 | -0.68 | inactive |
| B4GALNT1 | 0.09 | inactive |
| B4GALNT1 | -0.39 | inactive |
| B4GALNT1 | 0.28 | inactive |
| ATF5 | 0.09 | inactive |
| ATF5 | 0.47 | inactive |
| ATF5 | 0.54 | inactive |
| ATF5 | 0.8 | inactive |
| ZER1 | 0.39 | inactive |
| ZER1 | 0.15 | inactive |
| ZER1 | -0.75 | inactive |
| ZER1 | -0.64 | inactive |
| TNFRSF10A | -0.2 | inactive |
| TNFRSF10A | -0.07 | inactive |
| TNFRSF10A | -1.36 | inactive |
| TNFRSF10A | -0.55 | inactive |
| SPRR4 | -0.84 | inactive |
| SPRR4 | 0.2 | inactive |
| SPRR4 | 0.32 | inactive |
| SPRR4 | 1.35 | inactive |
| ADISSP | 1.52 | inactive |
| ADISSP | -0.68 | inactive |
| ADISSP | -0.62 | inactive |
| ADISSP | -0.58 | inactive |
| CD1D | 0.45 | inactive |
| CD1D | 1.74 | inactive |
| CD1D | 1.35 | inactive |
| CD1D | -0.08 | inactive |
| SLC9B1 | 0.6 | inactive |
| SLC9B1 | 0.45 | inactive |
| SLC9B1 | -0.05 | inactive |
| SLC9B1 | 0.63 | inactive |
| LYG2 | -1.22 | inactive |
| LYG2 | -0.8 | inactive |
| LYG2 | -0.85 | inactive |
| LYG2 | 0.02 | inactive |
| KIR2DS3 | -0.97 | inactive |
| KIR2DS3 | -1.01 | inactive |
| KIR2DS3 | -1.08 | inactive |
| CDC42BPG | 0.26 | inactive |
| CDC42BPG | 1.09 | inactive |
| CDC42BPG | 0.96 | inactive |
| CDC42BPG | 1.4 | inactive |
| SPOPL | 0.2 | inactive |
| SPOPL | -0.51 | inactive |
| SPOPL | -0.16 | inactive |
| SPOPL | 0.56 | inactive |
| NFKBIA | 1.23 | inactive |
| NFKBIA | 2.03 | inactive |
| NFKBIA | 1.51 | inactive |
| NFKBIA | 1.39 | inactive |
| NXPE3 | 1.29 | inactive |
| NXPE3 | 0.7 | inactive |
| NXPE3 | 1.18 | inactive |
| NXPE3 | 2.31 | inactive |
| PTPRZ1 | 0.82 | inactive |
| PTPRZ1 | 0.13 | inactive |
| PTPRZ1 | 0.58 | inactive |
| PTPRZ1 | 0.69 | inactive |
| CDH4 | 0.21 | inactive |
| CDH4 | -0.2 | inactive |
| CDH4 | -0.11 | inactive |
| CDH4 | 0.06 | inactive |
| CLDN10 | 1.76 | inactive |
| CLDN10 | 1.23 | inactive |
| CLDN10 | 0 | inactive |
| CLDN10 | 0.85 | inactive |
| NDUFB4 | 0.61 | inactive |
| NDUFB4 | -0.93 | inactive |
| NDUFB4 | -0.92 | inactive |
| NDUFB4 | 0 | inactive |
| UBL4B | -0.92 | inactive |
| UBL4B | 0.77 | inactive |
| UBL4B | -0.75 | inactive |
| UBL4B | -0.72 | inactive |
| SMG5 | 1.55 | inactive |
| SMG5 | 2.99 | active |
| SMG5 | 2.14 | inactive |
| SMG5 | 1.65 | inactive |
| SLC25A13 | 0.22 | inactive |
| SLC25A13 | 0.93 | inactive |
| SLC25A13 | 0.61 | inactive |
| SLC25A13 | 0.62 | inactive |
| HORMAD2 | -1.34 | inactive |
| HORMAD2 | -0.55 | inactive |
| HORMAD2 | -1.33 | inactive |
| HORMAD2 | -0.41 | inactive |
| ZNF714 | -0.55 | inactive |
| ZNF714 | 0.34 | inactive |
| ZNF714 | -0.62 | inactive |
| ZNF714 | -0.78 | inactive |
| GALR2 | -0.3 | inactive |
| GALR2 | -0.17 | inactive |
| GALR2 | -0.54 | inactive |
| GALR2 | 0.04 | inactive |
| UBE2NL | 0.15 | inactive |
| UBE2NL | 0.51 | inactive |
| UBE2NL | 1.47 | inactive |
| UBE2NL | 1 | inactive |

8 of these entries in another layout.
LYG2
- TNF reporter robust z-score: -1.22
- Outcome: inactive

LYG2
- TNF reporter robust z-score: -0.8
- Outcome: inactive

LYG2
- TNF reporter robust z-score: -0.85
- Outcome: inactive

LYG2
- TNF reporter robust z-score: 0.02
- Outcome: inactive

KIR2DS3
- TNF reporter robust z-score: -0.97
- Outcome: inactive

KIR2DS3
- TNF reporter robust z-score: -1.01
- Outcome: inactive

KIR2DS3
- TNF reporter robust z-score: -1.08
- Outcome: inactive

CDC42BPG
- TNF reporter robust z-score: 0.26
- Outcome: inactive
